The list is a part of this screen's results and no random one: it is rich in T/C values a quarter to a half above the control, in often repeated tests (any T/C) and in doses without a T/C. Other doses and runs of a compound stand elsewhere. T/C gives the treated animals as a percentage of the vehicle group. Some entries give survivors of the animals treated and no T/C: the source holds a T/C of zero for them, seemingly a mark for toxic or unscored doses. Some survivor counts are full or nearly so, which does not show that the dose was tolerated: the source hardly ever lists a survival T/C far under the control, and the zero likely stands for such cases as well. Counts of survivors are from the toxicity check (mostly the fifth day) where no day follows; animals may have died later. Schedule codes are those of the source, taken here to give the interval after Q, in days (D) or hours (H), and the number of doses after X. Some schedules carry Z or #; the key to these is not given. Some doses were run more than once; their values stand side by side, smallest first. Where survival is the endpoint, the PubChem record calls one and a half times the control and up active, and a quarter to a half above the control has no call in these data; cut-offs in other NCI protocols can differ.
System: L1210 leukemia ip in BDF1 mice, survival T/C
Test: NCI In Vivo Anticancer Drug Screen. Data for tumor model L1210 Leukemia (intraperitoneal) in B6D2F1 (BDF1) mice
Conditions: T/C endpoint: mean survival time, higher T/C = longer survival
[1] = dose: 200.0 mg/kg/injection, schedule: Q01DX009 (ip), vehicle: saline with Tween-80
[2] = dose: 100.0 mg/kg/injection, schedule: Q04DX003 (ip), vehicle: saline with Tween-80
[3] = dose: 400.0 mg/kg/injection, schedule: Q01DX009 (ip), vehicle: Klucel (hydroxypropylcellulose) (HPC)
[4] = dose: 100.0 mg/kg/injection, schedule: Q01DX009 (ip), vehicle: saline with Tween-80
[5] = dose: 400.0 mg/kg/injection, schedule: Q04DX003 (ip), vehicle: saline with Tween-80
[6] = dose: 400.0 mg/kg/injection, schedule: Q01DX009 (ip), vehicle: saline with Tween-80

With `O=C(Nc1ccc(Cl)c(Cl)c1)O/N=C/c1ccccn1` the survivor count [1] was 6 of 6.

`COc1ccc2c(c1)CCC1C2CCC2(C)C1CCC2(C)N(C)C` (centres undefined) was tested, and the survivor count (dose: 100.0 mg/kg/injection, schedule: Q01DX001 (sc), vehicle: steroid suspending solution) was 1 of 4, the survivor count (dose: 200.0 mg/kg/injection, schedule: Q01DX001 (sc), vehicle: steroid suspending solution) was 1 of 4 and the survivor count (dose: 400.0 mg/kg/injection, schedule: Q01DX001 (sc), vehicle: steroid suspending solution) was 1 of 4.

In the case of `CC(=O)Nc1onc(C)c1[N+](=O)[O-]`, the survivor count (dose: 100.0 mg/kg/injection, schedule: Q01DX009 (ip), vehicle: saline) is reported as 6 of 6.

For `O=C([O][Hg][C](F)(F)F)C(F)(F)F`, the survivor count (dose: 25.0 mg/kg/injection, schedule: Q04DX003 (ip), vehicle: saline with Tween-80) was 0 of 3, the survivor count (dose: 50.0 mg/kg/injection, schedule: Q04DX003 (ip), vehicle: saline with Tween-80) was 0 of 3 and the survivor count [2] was 0 of 3.

`Cc1ccccc1NC(=O)Nc1cccc(C)c1C` was tested, and the survivor count [3] was 3 of 6.

With `Fc1ccc(NC(=S)SCc2ccc(Cl)c(Cl)c2)cc1F` the T/C [4] was 130 % of control and the T/C [5] was 131 % of control.

For `N#Cc1c(F)c(F)c(C#N)c(F)c1F`, the survivor count (dose: 20.0 mg/kg/injection, schedule: Q01DX001 (ip), vehicle: saline) was 1 of 4, the survivor count (dose: 40.0 mg/kg/injection, schedule: Q01DX001 (ip), vehicle: saline) was 1 of 4 and the survivor count (dose: 80.0 mg/kg/injection, schedule: Q01DX001 (ip), vehicle: saline) was 0 of 4.

With `O=C(Nc1ccc(C2=NCCN2)cc1)c1cccc(C(=O)Nc2ccc(C3=NCCN3)cc2)c1O` the survivor count (dose: 60.0 mg/kg/injection, schedule: Q01DX Z (ip), vehicle: carboxymethylcellulose (CMC)) was 3 of 6.

For `OCCN1CCSC1=S`, the survivor count [6] was 5 of 6.

For `CCOC(=O)Nc1ccccc1C`, the survivor count (dose: 500.0 mg/kg/injection, schedule: Q01DX Z (ip), vehicle: methylcellulose (MC)) was 3 of 6.

For `CSc1nc(C)c(Br)c(Sc2nc(N)nc3nc[nH]c23)n1`, the survivor count (dose: 200.0 mg/kg/injection, schedule: Q01DX Z (ip), vehicle: methylcellulose (MC)) was 6 of 6.

In the case of `COc1ccc2c3c1OC1C=CC(O)C4C(C2)N(C)CCC314` (centres undefined), the survivor count (dose: 400.0 mg/kg/injection, schedule: Q01DX001 (ip), vehicle: saline) is reported as 3 of 6.

For `Cc1ccc2nc(C#N)c(C#N)nc2c1`, the survivor count (dose: 50.0 mg/kg/injection, schedule: Q01DX009 (ip), vehicle: Klucel (hydroxypropylcellulose) (HPC)) was 2 of 6, the survivor count (dose: 100.0 mg/kg/injection, schedule: Q01DX009 (ip), vehicle: Klucel (hydroxypropylcellulose) (HPC)) was 0 of 6 and 1 of 6 and the survivor count (dose: 200.0 mg/kg/injection, schedule: Q01DX009 (ip), vehicle: Klucel (hydroxypropylcellulose) (HPC)) was 0 of 6. The survivor count [3] was 0 of 6.

In the case of `CCCCCCP(=O)(O)O`, the survivor count [1] is reported as 0 of 6 and the survivor count [6] is reported as 0 of 6.

With `CCN(CC)CCCC(C)Nc1cc(C)nc2ccc(N(C)C)cc12` (centres undefined) the survivor count [4] was 2 of 6, the survivor count [1] was 0 of 6 and the survivor count [6] was 0 of 6.

`O=C(c1ccc([N+](=O)[O-])cc1)C(Br)C(Br)c1ccnc2ccccc12` (centres undefined) was tested, and the survivor count [2] was 6 of 6, the survivor count (dose: 200.0 mg/kg/injection, schedule: Q04DX003 (ip), vehicle: saline with Tween-80) was 6 of 6 and the survivor count [5] was 6 of 6.

With `O=C1C=Cc2ccc(O)cc2C1=O` the survivor count (dose: 10.0 mg/kg/injection, schedule: Q01DX Z (ip), vehicle: saline) was 2 of 6, the survivor count (dose: 15.0 mg/kg/injection, schedule: Q01DX Z (ip), vehicle: saline) was 0 of 6 and the survivor count (dose: 20.0 mg/kg/injection, schedule: Q01DX001 (ip), vehicle: acetone) was 2 of 6. For the same compound, the survivor count (dose: 22.0 mg/kg/injection, schedule: Q01DX Z (ip), vehicle: saline) was 0 of 6, the survivor count (dose: 40.0 mg/kg/injection, schedule: Q01DX001 (ip), vehicle: acetone) was 0 of 6 and the survivor count (dose: 75.0 mg/kg/injection, schedule: Q01DX001 (ip), vehicle: acetone) was 0 of 6. For the same compound, the survivor count (dose: 150.0 mg/kg/injection, schedule: Q01DX001 (ip), vehicle: acetone) was 0 of 6 and the survivor count (dose: 300.0 mg/kg/injection, schedule: Q01DX001 (ip), vehicle: acetone) was 0 of 6.
